Measured values reported in paper PMC3777161.
No constants are given. Whether binding was seen depends on the method and setting. For part of these data: In cells and extracts the contact can be indirect. Some binding calls cover weakened binding; strength is not graded here. For part of these data: Tags and fused reporters may be left off the sequences shown.

Legend:
[1] = molecular target: T1, BD-ABAR_(348–1038), middle fragment (amino acid residues 348–1038) of ABAR fused to the GAL4 DNA binding domain (Arabidopsis thaliana) (UniProt Q9FNB0); assay: two-hybrid; pairwise test in yeast strain AH109, bait in pGBKT7, prey in pGADT7; growth on Leu-Trp-His-Ade-deficient medium (SD4-), 5-7 days at 30 °C
T1 sequence: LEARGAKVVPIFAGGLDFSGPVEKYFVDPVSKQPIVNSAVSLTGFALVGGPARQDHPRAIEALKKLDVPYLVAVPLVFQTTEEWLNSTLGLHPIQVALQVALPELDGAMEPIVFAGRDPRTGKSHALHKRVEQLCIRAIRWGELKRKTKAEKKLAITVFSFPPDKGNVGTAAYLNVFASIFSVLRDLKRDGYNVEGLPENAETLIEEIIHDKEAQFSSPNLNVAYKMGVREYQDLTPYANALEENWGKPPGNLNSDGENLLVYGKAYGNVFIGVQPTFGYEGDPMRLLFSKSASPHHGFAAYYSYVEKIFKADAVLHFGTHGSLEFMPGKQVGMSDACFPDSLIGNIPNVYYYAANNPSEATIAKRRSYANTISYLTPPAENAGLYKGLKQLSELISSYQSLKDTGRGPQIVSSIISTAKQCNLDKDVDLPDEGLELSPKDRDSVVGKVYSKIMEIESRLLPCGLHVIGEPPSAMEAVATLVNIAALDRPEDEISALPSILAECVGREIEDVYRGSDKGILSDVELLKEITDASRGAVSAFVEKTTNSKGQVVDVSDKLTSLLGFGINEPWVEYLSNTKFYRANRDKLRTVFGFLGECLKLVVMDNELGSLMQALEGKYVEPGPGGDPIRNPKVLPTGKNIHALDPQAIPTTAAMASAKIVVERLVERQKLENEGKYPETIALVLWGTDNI

[2] = molecular target: T1, BD-ABAR_(348–1038), middle fragment (amino acid residues 348–1038) of ABAR fused to the GAL4 DNA binding domain (Arabidopsis thaliana); assay: co-IP; from yeast total proteins; anti-HA (CPN20) and anti-c-Myc (ABAR) antisera; preimmune serum as negative control
[3] = molecular target: T2, CPN20 of Arabidopsis total protein extracts (Arabidopsis thaliana (endogenous in Arabidopsis)) (UniProt O65282); assay: co-IP; Arabidopsis total protein extracts; IP with anti-CPN20 serum, blot with anti-ABAR serum; preimmune serum as negative control
T2 sequence: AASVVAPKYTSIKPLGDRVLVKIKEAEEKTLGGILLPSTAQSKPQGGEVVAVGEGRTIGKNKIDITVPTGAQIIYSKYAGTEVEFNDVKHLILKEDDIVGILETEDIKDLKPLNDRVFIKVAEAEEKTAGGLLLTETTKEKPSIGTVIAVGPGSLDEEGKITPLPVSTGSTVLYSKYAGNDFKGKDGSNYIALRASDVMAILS

B1: AD-CPN20, full-length CPN20 fused to the activation domain in the prey vector pGADT7 (protein, UniProt O65282 1-253)
chain: MAATQLTASPVTMSARSLASLDGLRASSVKFSSLKPGTLRQSQFRRLVVKAASVVAPKYTSIKPLGDRVLVKIKEAEEKTLGGILLPSTAQSKPQGGEVVAVGEGRTIGKNKIDITVPTGAQIIYSKYAGTEVEFNDVKHLILKEDDIVGILETEDIKDLKPLNDRVFIKVAEAEEKTAGGLLLTETTKEKPSIGTVIAVGPGSLDEEGKITPLPVSTGSTVLYSKYAGNDFKGKDGSNYIALRASDVMAILS
Q: How did the binding [1] turn out when B1 was run?
A: binds

Q: What about the binding [2] of the same binder?
A: binds

B2: ABAR protein (~150 kD) of Arabidopsis total protein extracts (protein, UniProt Q9FNB0 50-1381)
chain: AVSGNGLFTQTNPEVRRIVPIKRDNVPTVKIVYVVLEAQYQSSLSEAVQSLNKTSRFASYEVVGYLVEELRDKNTYNNFCEDLKDANIFIGSLIFVEELAIKVKDAVEKERDRMDAVLVFPSMPEVMRLNKLGSFSMSQLGQSKSPFFQLFKRKKQGSAGFADSMLKLVRTLPKVLKYLPSDKAQDARLYILSLQFWLGGSPDNLQNFVKMISGSYVPALKGVKIEYSDPVLFLDTGIWHPLAPTMYDDVKEYWNWYDTRRDTNDSLKRKDATVVGLVLQRSHIVTGDDSHYVAVIMELEARGAKVVPIFAGGLDFSGPVEKYFVDPVSKQPIVNSAVSLTGFALVGGPARQDHPRAIEALKKLDVPYLVAVPLVFQTTEEWLNSTLGLHPIQVALQVALPELDGAMEPIVFAGRDPRTGKSHALHKRVEQLCIRAIRWGELKRKTKAEKKLAITVFSFPPDKGNVGTAAYLNVFASIFSVLRDLKRDGYNVEGLPENAETLIEEIIHDKEAQFSSPNLNVAYKMGVREYQDLTPYANALEENWGKPPGNLNSDGENLLVYGKAYGNVFIGVQPTFGYEGDPMRLLFSKSASPHHGFAAYYSYVEKIFKADAVLHFGTHGSLEFMPGKQVGMSDACFPDSLIGNIPNVYYYAANNPSEATIAKRRSYANTISYLTPPAENAGLYKGLKQLSELISSYQSLKDTGRGPQIVSSIISTAKQCNLDKDVDLPDEGLELSPKDRDSVVGKVYSKIMEIESRLLPCGLHVIGEPPSAMEAVATLVNIAALDRPEDEISALPSILAECVGREIEDVYRGSDKGILSDVELLKEITDASRGAVSAFVEKTTNSKGQVVDVSDKLTSLLGFGINEPWVEYLSNTKFYRANRDKLRTVFGFLGECLKLVVMDNELGSLMQALEGKYVEPGPGGDPIRNPKVLPTGKNIHALDPQAIPTTAAMASAKIVVERLVERQKLENEGKYPETIALVLWGTDNIKTYGESLGQVLWMIGVRPIADTFGRVNRVEPVSLEELGRPRIDVVVNCSGVFRDLFINQMNLLDRAIKMVAELDEPVEQNFVRKHALEQAEALGIDIREAATRVFSNASGSYSANISLAVENSSWNDEKQLQDMYLSRKSFAFDSDAPGAGMAEKKQVFEMALSTAEVTFQNLDSSEISLTDVSHYFDSDPTNLVQSLRKDKKKPSSYIADTTTANAQVRTLSETVRLDARTKLLNPKWYEGMMSSGYEGVREIEKRLSNTVGWSATSGQVDNWVYEEANSTFIQDEEMLNRLMNTNPNSFRKMLQTFLEANGRGYWDTSAENIEKLKELYSQVEDKIEGIDR
Q: How did the binding [3] turn out when B2 was run?
A: binds
